Assay results as given in patent publication US20030180385A1 (priority 2002, published 2003).

Columns and labels:
[1] = tested on: Triticum aestivum seeds; test: Percentage of aleurone and pericarp (microscope fields), wheat; settings: steeped 1 hour, mean of 390 microscope fields
[2] = tested on: Triticum durum seeds; test: Seed color values (Yxy, Minolta C100 Chroma Meter), durum wheat; settings: steeped 1 hour, NaOH 0.25%; for Color values Lightness (Y): means of four replications
[3] = tested on: red wheat (Vance Wheat) seeds; test: Seed color values on red wheat, varying concentration and time

SMILES	Aleurone (%) ([1]; listed as H 0.8%)	Pericarp (%) ([1]; listed as H 0.8%)	Color values Redness (x) ([2]; listed as H 0.8%)	Color values Lightness (Y) ([2]; listed as H 0.8%)	Color values Lightness ([3]; 0.5 h)	Color values Redness ([3]; 0.5 h)	Color values Lightness ([3]; 1 h)	Color values Redness ([3]; 1 h)	Color values Lightness ([3]; 2 h)	Color values Redness ([3]; 2 h)	Aleurone (%) ([1]; listed as H 1.6%)	Pericarp (%) ([1]; listed as H 1.6%)	Color values Redness (x) ([2]; listed as H 1.6%)	Color values Lightness (Y) ([2]; listed as H 1.6%)	Color values Lightness (Y) ([2]; listed as hypochlorite solutions)
OCl [Hypochlorite 0.8%, hypochlorite]	9.49%	4.06%	0.3462	71.0025	70.5025	0.3347	73.0425	0.3335	73.68	0.3318	–	–	–	–	–
OCl [Hypochlorite 1.6%, hypochlorite]	–	–	–	–	71.8475	0.3327	74.1725	0.3321	75.675	0.3314	8.95%	4.66%	0.3445	70.6825	–
OCl [Hypochlorite 3.3%, hypochlorite]	–	–	–	–	72.7825	0.3332	75.8925	0.3316	76.85	0.3311	–	–	–	–	–
[Na+].[OH-] [NaOH 0.25%, sodium hydroxide]	–	–	–	–	63.6275	0.3362	65.26	0.3371	64.1125	0.3378	–	–	–	–	–
OCl [hypochlorite]	–	–	–	–	–	–	–	–	76.8	0.3311	–	–	–	–	71.0
